From PMC9587286
No constants are given. Whether binding was seen depends on the method and setting. In cells and extracts the contact can be indirect. Some binding calls cover weakened binding; strength is not graded here. For part of these data: Where a sequence is shown, tags or fusion partners need not be part of it.

Sequences of proteins named here, by UniProt entry; tags and fusion partners are left off. A change or cut given only in a name is not applied to a line headed by its entry.
UniProt Q9UBN7: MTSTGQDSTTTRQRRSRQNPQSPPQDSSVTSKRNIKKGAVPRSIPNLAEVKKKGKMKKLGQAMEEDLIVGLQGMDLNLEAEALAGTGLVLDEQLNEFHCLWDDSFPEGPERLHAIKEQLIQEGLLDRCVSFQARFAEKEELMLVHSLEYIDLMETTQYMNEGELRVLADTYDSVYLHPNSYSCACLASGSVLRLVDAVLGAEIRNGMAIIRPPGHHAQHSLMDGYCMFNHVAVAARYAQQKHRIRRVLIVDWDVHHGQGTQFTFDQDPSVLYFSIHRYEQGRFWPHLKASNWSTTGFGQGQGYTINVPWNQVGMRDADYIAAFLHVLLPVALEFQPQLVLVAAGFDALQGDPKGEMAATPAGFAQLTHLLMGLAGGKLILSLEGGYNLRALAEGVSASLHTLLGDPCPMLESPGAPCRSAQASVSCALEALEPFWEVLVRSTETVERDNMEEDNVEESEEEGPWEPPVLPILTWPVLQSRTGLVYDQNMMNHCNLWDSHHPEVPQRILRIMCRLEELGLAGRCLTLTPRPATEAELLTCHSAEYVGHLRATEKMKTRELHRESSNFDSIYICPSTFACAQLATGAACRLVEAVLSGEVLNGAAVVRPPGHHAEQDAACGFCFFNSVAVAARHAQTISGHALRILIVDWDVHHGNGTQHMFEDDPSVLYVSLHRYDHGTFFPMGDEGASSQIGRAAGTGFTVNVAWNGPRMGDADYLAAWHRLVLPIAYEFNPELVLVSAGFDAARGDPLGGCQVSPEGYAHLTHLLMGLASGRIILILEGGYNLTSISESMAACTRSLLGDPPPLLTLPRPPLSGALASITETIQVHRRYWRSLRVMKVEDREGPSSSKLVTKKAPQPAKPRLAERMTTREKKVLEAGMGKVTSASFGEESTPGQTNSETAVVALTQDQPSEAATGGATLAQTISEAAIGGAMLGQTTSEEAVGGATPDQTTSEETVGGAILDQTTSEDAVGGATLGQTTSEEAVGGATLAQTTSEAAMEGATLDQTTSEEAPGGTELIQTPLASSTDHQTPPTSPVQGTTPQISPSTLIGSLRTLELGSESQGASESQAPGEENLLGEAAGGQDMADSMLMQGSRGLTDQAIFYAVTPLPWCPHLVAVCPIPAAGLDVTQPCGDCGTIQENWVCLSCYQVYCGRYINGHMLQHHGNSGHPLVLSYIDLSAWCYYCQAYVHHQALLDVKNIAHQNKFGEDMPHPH

Experiments:
[1] = target: T1, HA-TAK1 (transforming growth factor β-activated kinase 1), full length (UniProt O43318); assay: co-IP; Flag-HDAC6 and HA-TAK1 co-expressed in HEK293T cells for 48 h; 1 mg lysate protein with 2 μg antibody (anti-Flag or anti-HA) overnight at 4 °C, protein A/G beads 3 h, three washes with cold IP buffer; both directions
T1 sequence: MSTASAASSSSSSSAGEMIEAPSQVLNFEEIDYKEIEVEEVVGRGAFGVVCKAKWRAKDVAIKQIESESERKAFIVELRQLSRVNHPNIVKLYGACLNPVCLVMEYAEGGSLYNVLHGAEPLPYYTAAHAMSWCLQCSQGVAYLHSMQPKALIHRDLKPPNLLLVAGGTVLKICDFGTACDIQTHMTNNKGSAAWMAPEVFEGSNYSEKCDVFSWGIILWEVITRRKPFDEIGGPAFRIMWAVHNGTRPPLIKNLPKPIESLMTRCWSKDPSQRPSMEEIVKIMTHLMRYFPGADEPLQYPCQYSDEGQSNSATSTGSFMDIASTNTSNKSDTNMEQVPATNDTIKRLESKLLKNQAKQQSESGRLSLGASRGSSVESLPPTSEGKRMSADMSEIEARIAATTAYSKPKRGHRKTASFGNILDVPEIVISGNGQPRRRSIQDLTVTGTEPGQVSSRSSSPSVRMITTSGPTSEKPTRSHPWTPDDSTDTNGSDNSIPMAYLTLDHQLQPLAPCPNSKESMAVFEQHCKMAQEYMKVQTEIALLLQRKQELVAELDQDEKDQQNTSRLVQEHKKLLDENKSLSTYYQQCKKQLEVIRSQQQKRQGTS

[2] = target: T2, TAK1, endogenous in HCT116 cells (human (endogenous in HCT116)) (UniProt O43318); assay: co-IP; endogenous TAK1 and HDAC6 in HCT116 cells, immunoprecipitation in both directions
T2 sequence: T1 sequence

[3] = target: T1, HA-TAK1 (transforming growth factor β-activated kinase 1), full length; assay: co-IP; constructs expressing full-length and truncated HDAC6 and TAK1 in transfected cells; cell line not stated for this experiment
[4] = target: Flag-tagged HDAC6 (histone deacetylase 6), full length (UniProt Q9UBN7); assay: co-IP; Flag-HDAC6 and HA-TAK1 co-expressed in HEK293T cells for 48 h; 1 mg lysate protein with 2 μg antibody (anti-Flag or anti-HA) overnight at 4 °C, protein A/G beads 3 h, three washes with cold IP buffer; both directions
[5] = target: HDAC6, endogenous in HCT116 cells (human (endogenous in HCT116)) (UniProt Q9UBN7); assay: co-IP; endogenous TAK1 and HDAC6 in HCT116 cells, immunoprecipitation in both directions
[6] = target: Flag-tagged HDAC6 (histone deacetylase 6), full length (UniProt Q9UBN7); assay: co-IP; constructs expressing full-length and truncated HDAC6 and TAK1 in transfected cells; cell line not stated for this experiment

Question: “Flag-tagged HDAC6 (histone deacetylase 6), full length (from UniProt Q9UBN7 1-1215) (enzyme)” was tested. Which binding [1] did it give?
Answer: binds

Question: How did the binding [2] turn out when “HDAC6, endogenous in HCT116 cells (from UniProt Q9UBN7 1-1215) (enzyme)” was run?
Answer: binds

Question: Which binding [3] does the source give for “HDAC6 1-840 aa region (contains two deacetylase activity domains) (from UniProt Q9UBN7 1-840) (domain or fragment)” here?
Answer: binds

B1: HA-TAK1 (transforming growth factor β-activated kinase 1), full length (enzyme, UniProt O43318 1-606)
chain: T1 sequence
Question: With B1 as the molecule, how does the binding [4] read?
Answer: binds

B2: TAK1, endogenous in HCT116 cells (enzyme, UniProt O43318 1-606)
chain: T1 sequence
Question: Which binding [5] does the source give for B2 here?
Answer: binds

B3: TAK1 1-300 aa region (includes the kinase domain) (domain or fragment, UniProt O43318 1-300)
chain: MSTASAASSSSSSSAGEMIEAPSQVLNFEEIDYKEIEVEEVVGRGAFGVVCKAKWRAKDVAIKQIESESERKAFIVELRQLSRVNHPNIVKLYGACLNPVCLVMEYAEGGSLYNVLHGAEPLPYYTAAHAMSWCLQCSQGVAYLHSMQPKALIHRDLKPPNLLLVAGGTVLKICDFGTACDIQTHMTNNKGSAAWMAPEVFEGSNYSEKCDVFSWGIILWEVITRRKPFDEIGGPAFRIMWAVHNGTRPPLIKNLPKPIESLMTRCWSKDPSQRPSMEEIVKIMTHLMRYFPGADEPLQY
Question: Which binding [6] does the source give for B3 here?
Answer: binds
